Test results as given in publication PMC5807549.
Results are given in words; binding and its absence hold for the method and conditions named. In cells and extracts the contact can be indirect. Some binding calls cover weakened binding; strength is not graded here. Where a sequence is shown, tags or fusion partners need not be part of it.

By UniProt entry, the sequences of proteins in these tests, tags left out. Residues count along the entry.
UniProt Q9Y3D2, residues 21-182: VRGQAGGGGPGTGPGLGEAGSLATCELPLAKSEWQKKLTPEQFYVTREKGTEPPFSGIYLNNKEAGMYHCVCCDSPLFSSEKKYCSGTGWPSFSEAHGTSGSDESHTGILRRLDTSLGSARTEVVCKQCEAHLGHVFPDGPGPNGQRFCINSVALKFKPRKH

T1: His-hGrpEL1, not treated with H2O2 (human) (UniProt Q9HAV7)
T1 sequence: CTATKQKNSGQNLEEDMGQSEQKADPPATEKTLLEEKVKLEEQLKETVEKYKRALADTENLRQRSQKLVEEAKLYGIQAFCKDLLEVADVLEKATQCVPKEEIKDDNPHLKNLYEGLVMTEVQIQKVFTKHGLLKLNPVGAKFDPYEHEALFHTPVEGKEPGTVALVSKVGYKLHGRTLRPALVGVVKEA

B1: Flag-yMxr2 (yeast mitochondrial methionine sulfoxide reductase 2) (enzyme, UniProt P25566 1-168)
chain: MNKWSRLYVITVRRTFPGRRNIVLTQYWNKSKKMSDESNDVKWNDALTPLQLMVLRDKATERPNTGAYLHTNESGVYHCANCDRPLYSSKAKFDARCGWPAFYEEVSPGAITYHRDNSLMPARVEICCARCGGHLGHVFEGEGWKQLLNLPKDTRHCVNSASLNLKKD
B2: Flag-Su9-MsrA (human methionine-S-sulfoxide reductase A with Su9 MTS) (enzyme, UniProt Q9UJ68 67-235)
chain: MAVFGMGCFWGAERKFWVLKGVYSTQVGFAGGYTSNPTYKEVCSEKTGHAEVVRVVYQPEHMSFEELLKVFWENHDPTQGMRQGNDHGTQYRSAIYPTSAKQMEAALSSKENYQKVLSEHGFGPITTDIREGQTFYYAEDYHQQYLSKNPNGYCGLGGTGVSCPVGIKK
B3: Flag-yMxr1 (yeast cytosolic methionine sulfoxide reductase 1) (enzyme, UniProt P40029 1-184)
chain: MSSLISKTIKYDPAKDKLITLACGCFWGTEHMYRKYLNDRIVDCKVGYANGEESKKDSPSSVSYKRVCGGDTDFAEVLQVSYNPKVITLRELTDFFFRIHDPTTSNSQGPDKGTQYRSGLFAHSDADLKELAKIKEEWQPKWGNKIATVIEPIKNFYDAEEYHQLYLDKNPQGYACPTHYLREM

What follows are molecules tested against T1, His-hGrpEL1, not treated with H2O2 (human) (assay: pull-down; in vitro Ni-NTA pull-down: 10 ug purified His-tagged bait (His-hGrpEL1 or His-Mrp6), pre-treated without or with H2O2 (increasing concentrations, 2 hrs), bound to Ni-NTA beads; 100 ug mitochondrial lysate (or cytosol lysate for Flag-Mxr1) of yeast expressing the Flag-Msr passed through; 3 washes with 10 mM imidazole buffer; immunoblot with Flag, GrpEL1 and His antibodies; only the target purified).

“Flag-MsrB2 (human methionine-R-sulfoxide reductase B2) (from UniProt Q9Y3D2 21-182) (enzyme)” was tested. Which binding did it give?
The binding was “binds weakly”.

B1 was tested. Which binding did it give?
Its binding is “binds weakly”.

B2 was tested. Which binding did it give?
Its binding is “no binding”.

For B3, which binding is on record?
The binding was “no binding”.
